PubChem BioAssay AID1259308 – NCATS, 2017
The whole screen tested about 59,000 reagents; this is a part drawn at random. Of all reagents, about 1,510 (2.6%) were called active. 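Calls use total luciferase alone and ignore viability, so some active siRNAs may act by altering cell number.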 The numbers tell different reagents against one gene apart. Further read-outs or replicates are left out here. Reagent sequences are not shown.

- Screen: 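Candidate targets for better recombinant protein yield in mammalian cells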 (primary screen)
- Cells: human HEK293 embryonic kidney cells stably expressing firefly luciferase (HEK-CMV-Luc2-Hygro)
- Reagent: single siRNA against human genes, 0.8 pmol siRNA per well
- Time to read-out: 72 h
- Measured: 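Reporter luminescence and viable-cell signal on separate replicate plates, given as percent of non-targeting control and median/MAD z-scores, plus per-cell luciferase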
- Reading the numbers: total luciferase, z-score: higher = more reporter protein produced
- Rule for the call: 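An siRNA counts as active if its total luciferase robust z-score exceeds 3; genes with two or more such siRNAs out of three were retested with fresh siRNAs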
- Meaning of the calls: active = raised luciferase; inactive = no rise

What did the screen give for ANGPTL3 #1?
total luciferase, z-score: -0.881; call: inactive

How did the screen score ANGPTL3 #2?
total luciferase, z-score: -1.04; call: inactive

With ANGPTL3 #3, what does the deposit list?
total luciferase, z-score: 0.173; call: inactive

For WAS #1, what was measured?
total luciferase, z-score: -0.0298; call: inactive

For WAS #2, what was measured?
total luciferase, z-score: -1.03; call: inactive

What did the screen give for WAS #3?
total luciferase, z-score: 1.43; call: inactive

2 entries from above in another layout.
gene	reagent	total luciferase, z-score	call
ANGPTL3	1	-0.881	inactive
ANGPTL3	2	-1.04	inactive

Next records follow:
With SOX9-AS1 #1, what was measured?
total luciferase, z-score: -1.07; call: inactive

With SOX9-AS1 #2, what does the deposit list?
total luciferase, z-score: -0.00124; call: inactive

Which result is listed for SOX9-AS1 #3?
total luciferase, z-score: 1.76; call: inactive

With SOX9-AS1 #4, what was measured?
total luciferase, z-score: 0.358; call: inactive

Which result is listed for SOX9-AS1 #5?
total luciferase, z-score: 1.06; call: inactive

For SOX9-AS1 #6, what was measured?
total luciferase, z-score: 2.49; call: inactive
